Earlier results, collected in patent publication US9783526B2, “Control of hypoxia-inducible gene expression with oligooxopiperazine nonpeptidic helix mimetics” (New York University, priority 2012, dated 2017).
At least one structure is not confirmed: it was looked up by name or label, or the drawing left a doubt.

Tested on: HIF-1α C-TAD and p300/CBP

## CN1C(=O)[C@@]23C[C@]4([C@]56C[C@@]78SS[C@@](CO)(C(=O)N7[C@H]5Nc5ccccc56)N(C)C8=O)c5ccccc5N[C@@H]4N2C(=O)[C@]1(CO)SS3 [chaetocin]
  inhibition of the interaction between HIF-1α C-TAD and p300/CBP: inhibit the interaction
